The values that follow come from publication PMC4467123.

Chains of the proteins cited; added tags and fusions are not shown. Lines headed by an entry give the natural chain unless they say otherwise; changes in a name come on top. Residues count along the entry.
UniProt P42224, residues 1-712: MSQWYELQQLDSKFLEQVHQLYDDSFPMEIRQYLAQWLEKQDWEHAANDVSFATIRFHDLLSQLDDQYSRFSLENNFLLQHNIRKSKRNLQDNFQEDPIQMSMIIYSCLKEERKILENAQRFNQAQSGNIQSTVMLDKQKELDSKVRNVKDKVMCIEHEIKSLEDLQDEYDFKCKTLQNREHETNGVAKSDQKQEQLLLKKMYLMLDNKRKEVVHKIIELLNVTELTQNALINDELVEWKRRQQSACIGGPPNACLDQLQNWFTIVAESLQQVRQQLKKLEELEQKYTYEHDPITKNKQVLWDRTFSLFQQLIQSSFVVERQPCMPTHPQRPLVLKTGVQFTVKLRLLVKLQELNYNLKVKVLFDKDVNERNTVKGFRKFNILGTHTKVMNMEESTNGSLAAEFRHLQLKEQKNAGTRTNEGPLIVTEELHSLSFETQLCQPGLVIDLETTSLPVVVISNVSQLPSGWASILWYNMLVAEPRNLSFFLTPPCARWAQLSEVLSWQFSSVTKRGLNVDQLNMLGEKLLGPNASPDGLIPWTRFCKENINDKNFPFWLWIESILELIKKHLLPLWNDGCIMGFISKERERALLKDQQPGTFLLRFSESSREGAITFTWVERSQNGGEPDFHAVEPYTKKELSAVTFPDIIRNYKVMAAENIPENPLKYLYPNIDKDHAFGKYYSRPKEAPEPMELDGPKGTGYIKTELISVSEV

Results are given in words; binding and its absence hold for the method and conditions named. In cells and extracts the contact can be indirect. Some results given as binding are weak or reduced against the parent protein; the word gives no strength. Tags and fused reporters may be left off the sequences shown.

In this assay the target is T1, Flag-tagged N-myc (and STAT) interactor (NMI) (human) (UniProt Q13287).
T1 sequence: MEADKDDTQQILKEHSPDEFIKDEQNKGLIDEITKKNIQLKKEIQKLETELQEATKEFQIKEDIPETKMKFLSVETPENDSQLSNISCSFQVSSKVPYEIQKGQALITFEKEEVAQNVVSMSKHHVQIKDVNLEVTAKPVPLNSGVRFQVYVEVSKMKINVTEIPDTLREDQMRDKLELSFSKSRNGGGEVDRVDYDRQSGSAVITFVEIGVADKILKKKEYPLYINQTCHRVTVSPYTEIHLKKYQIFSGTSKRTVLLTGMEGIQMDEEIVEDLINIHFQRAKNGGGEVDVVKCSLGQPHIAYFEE
Description: co-IP; U251 cells stably overexpressing Flag-tagged NMI and STAT1 (α or β) via lentivirus; NP-40 lysis buffer (50 mM Tris-HCl pH 7.5, 150 mM NaCl, 1% NP-40); anti-Flag M2 magnetic beads overnight at 4°C, four washes; blot with STAT1 antibody.

Turning to “STAT1β (STAT1 isoform β, transcript variant V2) (from UniProt P42224-2 1-712)”, the binding result is recorded as “binds”.
